Results are given in words; binding and its absence hold for the method and conditions named. Some entries that bind do so weakly or less than the wild type.
Key:
[1] = molecular target: claudin-1 (CLDN1) extracellular loop mimetic peptide (Cldn1 53-80 with biotinylated C-terminus) (human) (UniProt O95832); test: M13 phage display biopanning against the biotinylated claudin-1 fragment; strong binders eluted
human claudin-1 (human) = human claudin-1 (human) (UniProt O95832); test: competition with 5 µM RTS*-Cy5.5 on SW620 cells, confocal fluorescence; compared with unlabeled SPT*

Sequences of proteins named here, by UniProt entry; tags and fusion partners are left off. A change or cut given only in a name is not applied to a line headed by its entry. Residues count along the entry.
UniProt O95832: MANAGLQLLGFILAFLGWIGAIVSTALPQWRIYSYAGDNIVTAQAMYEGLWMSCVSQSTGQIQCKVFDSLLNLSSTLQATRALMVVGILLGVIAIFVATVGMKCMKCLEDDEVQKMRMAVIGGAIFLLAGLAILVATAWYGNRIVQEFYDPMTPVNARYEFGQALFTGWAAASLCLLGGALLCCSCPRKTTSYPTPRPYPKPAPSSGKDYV
claudin-1 (CLDN1) extracellular loop mimetic peptide (Cldn1 53-80 with biotinylated C-terminus): residues 53-80 of O95832

Row | Binder | binding [1] | binding (human claudin-1 (human))
1 | IHTRRRK [phage-displayed peptide IHTRRRK (SEQ ID NO: 12)] | binds | –
2 | ITIRQHI [phage-displayed peptide ITIRQHI (SEQ ID NO: 7)] | binds | –
3 | LRNNIRH [phage-displayed peptide LRNNIRH (SEQ ID NO: 23)] | binds | –
4 | LNRIRRR [phage-displayed peptide LNRIRRR (SEQ ID NO: 9)] | binds | –
5 | RHRRSPI [phage-displayed peptide RHRRSPI (SEQ ID NO: 14)] | binds | –
6 | RRSNSQL [phage-displayed peptide RRSNSQL (SEQ ID NO: 8)] | binds | –
7 | HLQLQRL [phage-displayed peptide HLQLQRL (SEQ ID NO: 2)] | binds | –
8 | LQSLISK [phage-displayed peptide LQSLISK (SEQ ID NO: 11)] | binds | –
9 | RTSPSSR [phage-displayed peptide RTSPSSR (SEQ ID NO: 1)] | binds | –
10 | NNMKKIT [phage-displayed peptide NNMKKIT (SEQ ID NO: 10)] | binds | –
11 | TRRHTII [phage-displayed peptide TRRHTII (SEQ ID NO: 18)] | binds | –
12 | LLTISPK [phage-displayed peptide LLTISPK (SEQ ID NO: 20)] | binds | –
13 | ITLSITQ [phage-displayed peptide ITLSITQ (SEQ ID NO: 15)] | binds | –
14 | RIIHKNM [phage-displayed peptide RIIHKNM (SEQ ID NO: 19)] | binds | –
15 | TSPMLSI [phage-displayed peptide TSPMLSI (SEQ ID NO: 22)] | binds | –
16 | LLPMHMN [phage-displayed peptide LLPMHMN (SEQ ID NO: 21)] | binds | –
17 | RTSPSSR [unlabeled RTS* peptide] | – | binds
18 | IQTNPTM [phage-displayed peptide IQTNPTM (SEQ ID NO: 3)] | binds | –
19 | RSLTQQT [phage-displayed peptide RSLTQQT (SEQ ID NO: 4)] | binds | –
20 | KTQLMII [phage-displayed peptide KTQLMII (SEQ ID NO: 16)] | binds | –
21 | IQLKINS [phage-displayed peptide IQLKINS (SEQ ID NO: 6)] | binds | –
22 | SLQHLRS [phage-displayed peptide SLQHLRS (SEQ ID NO: 5)] | binds | –
23 | RPNKPRI [phage-displayed peptide RPNKPRI (SEQ ID NO: 13)] | binds | –
24 | RPRQLQR [phage-displayed peptide RPRQLQR (SEQ ID NO: 17)] | binds | –
